# Measurements taken from the supplement of paper PMC8728848.
# Some of the results follow.
# B1: GS7807I-bvu-563-22-563 (Bacteroides vulgatus) (protein)
# chain: IFSSCTDDFEKLNTSNIQVDPADLPFAAQCTEPMTYCYPPQQNMFQFWTNLTIDLYGGYFMTPNGNFTNGDMGENRGHSGGMYENYYLHIFNNTRRIIAQCDASGERGLSGVMRIVQAYGTLMTTDAYGPIPYSSILSGENEVYFEFDSQKDLYKAMLEDLSTAITDISAMGADEIAKLKSFDCWCNGDKDLWVKIANTMKLRMALRLSKRETEAGNAGMNLKAIATEAAQNTLATVNKDILIDKSLENEMWLMFNWGDCGFNANLVTIMSGTKDPRQPLYMTLNTGDIKNEAGTTTVAANSQYLGIRFASGLPAKPNSWGNFSGWIQGNNGSSYSMPLPIMKAAEAYFLLAEAKLRWDIGSESVKNLYENGIRVSMTNELAYRGAYAGIKEYPEGAVDAYINGTSTQIDYTDPIKAELSTPAVNKLSVKWDESASNEEKLERIITQKWLALFPLSTEGWAEQRRTGYPRFFPAFVNESNGAVNTEEGVRRVIYSSQAYDANAKGVEGGIKLLDEENSSKFGISGDKGGTHLWWDNADKGNF
# How the values were obtained:
# Experiment in all cases: glycan array binding signal (z-score within array); higher = stronger binding
# Details in all cases: glycan notation: IUPAC condensed, linker removed
# Fuc(a1-2)Gal = biological target: Fuc(a1-2)Gal
# Method in brief: (§1)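 Glycan array data came from 3228 arrays in the Consortium for Functional Glycomics database, and only arrays with an available protein sequence were kept. Glycan names were put into IUPAC-condensed notation, and columns mapping to the same glycan were averaged. The binding signal is a within-array Z-score, averaged across arrays of one protein sequence run at different concentrations or buffers and across linkers. A negative Z-score can be read as non-binding.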
# Fuc(a1-2)Gal(b1-3)GalNAc = biological target: Fuc(a1-2)Gal(b1-3)GalNAc
# Method in brief: as §1
# [1] = biological target: Fuc(a1-2)Gal(b1-3)GalNAc(a1-3)[Fuc(a1-2)]Gal(b1-4)Glc
# Method in brief: as §1
# [2] = biological target: Fuc(a1-2)Gal(b1-3)GalNAc(a1-3)[Fuc(a1-2)]Gal(b1-4)GlcNAc
# Method in brief: as §1
# [3] = biological target: Fuc(a1-2)Gal(b1-3)GalNAc(b1-3)Gal
# Method in brief: as §1
# [4] = biological target: Fuc(a1-2)Gal(b1-3)GalNAc(b1-3)Gal(a1-4)Gal(b1-4)Glc
# Method in brief: as §1
# [5] = biological target: Fuc(a1-2)Gal(b1-3)GalNAc(b1-4)[Neu5Ac(a2-3)]Gal(b1-4)Glc
# Method in brief: as §1
# Fuc(a1-2)Gal(b1-3)GlcNAc = biological target: Fuc(a1-2)Gal(b1-3)GlcNAc
# Method in brief: as §1
# [6] = biological target: Fuc(a1-2)Gal(b1-3)GlcNAc(b1-2)Man(a1-3)[Fuc(a1-2)Gal(b1-3)GlcNAc(b1-2)Man(a1-6)]Man(b1-4)GlcNAc(b1-4)GlcNAc
# Method in brief: as §1
# [7] = biological target: Fuc(a1-2)Gal(b1-3)GlcNAc(b1-2)Man(a1-3)[Fuc(a1-2)Gal(b1-3)GlcNAc(b1-2)Man(a1-6)]Man(b1-4)GlcNAc(b1-4)[Fuc(a1-6)]GlcNAc
# Method in brief: as §1
# [8] = biological target: Fuc(a1-2)Gal(b1-3)GlcNAc(b1-3)Gal(b1-4)Glc
# Method in brief: as §1
# [9] = biological target: Fuc(a1-2)Gal(b1-3)GlcNAc(b1-3)GalNAc
# Method in brief: as §1
# [10] = biological target: Fuc(a1-2)Gal(b1-3)GlcNAc(b1-3)[Fuc(a1-2)Gal(b1-3)GlcNAc(b1-6)]GalNAc
# Method in brief: as §1
# [11] = biological target: Fuc(a1-2)Gal(b1-3)GlcNAc(b1-3)[Gal(b1-4)GlcNAc(b1-6)]Gal(b1-4)Glc
# Method in brief: as §1
# [12] = biological target: Fuc(a1-2)Gal(b1-3)GlcNAc(b1-3)[Neu5Ac(a2-6)Gal(b1-4)GlcNAc(b1-6)]Gal(b1-4)Glc
# Method in brief: as §1
# [13] = biological target: Fuc(a1-2)Gal(b1-3)GlcNAc6S
# Method in brief: as §1
# [14] = biological target: Fuc(a1-2)Gal(b1-3)[Fuc(a1-4)]GlcNAc
# Method in brief: as §1
# [15] = biological target: Fuc(a1-2)Gal(b1-3)[Fuc(a1-4)]GlcNAc(b1-2)Man(a1-3)[Fuc(a1-2)Gal(b1-3)[Fuc(a1-4)]GlcNAc(b1-2)Man(a1-3)]Man(b1-4)GlcNAc(b1-4)GlcNAc
# Method in brief: as §1
# [16] = biological target: Fuc(a1-2)Gal(b1-3)[Fuc(a1-4)]GlcNAc(b1-2)Man(a1-3)[Fuc(a1-2)Gal(b1-3)[Fuc(a1-4)]GlcNAc(b1-2)Man(a1-6)]Man(b1-4)GlcNAc(b1-4)[Fuc(a1-6)]GlcNAc(b1-4)[Fuc(a1-6)]GlcNAc
# Method in brief: as §1
# [17] = biological target: Fuc(a1-2)Gal(b1-3)[Fuc(a1-4)]GlcNAc(b1-3)[Fuc(a1-3)[Gal(b1-4)]GlcNAc(b1-6)]Gal(b1-4)Glc
# Method in brief: as §1
# [18] = biological target: Fuc(a1-2)Gal(b1-3)[Fuc(a1-4)]GlcNAc(b1-3)[Gal(b1-4)GlcNAc(b1-6)]Gal(b1-4)Glc
# Method in brief: as §1
# Fuc(a1-2)Gal(b1-4)Glc = biological target: Fuc(a1-2)Gal(b1-4)Glc
# Method in brief: as §1
# Fuc(a1-2)Gal(b1-4)Glc6S = biological target: Fuc(a1-2)Gal(b1-4)Glc6S
# Method in brief: as §1
# Fuc(a1-2)Gal(b1-4)GlcNAc = biological target: Fuc(a1-2)Gal(b1-4)GlcNAc
# Method in brief: as §1
# [19] = biological target: Fuc(a1-2)Gal(b1-4)GlcNAc(b1-2)Man
# Method in brief: as §1
# [20] = biological target: Fuc(a1-2)Gal(b1-4)GlcNAc(b1-2)Man(a1-3)[Fuc(a1-2)Gal(b1-4)GlcNAc(b1-2)Man(a1-6)]Man(b1-4)GlcNAc(b1-4)GlcNAc
# Method in brief: as §1
# [21] = biological target: Fuc(a1-2)Gal(b1-4)GlcNAc(b1-2)Man(a1-3)[Fuc(a1-2)Gal(b1-4)GlcNAc(b1-2)Man(a1-6)]Man(b1-4)GlcNAc(b1-4)[Fuc(a1-6)]GlcNAc
# Method in brief: as §1
# [22] = biological target: Fuc(a1-2)Gal(b1-4)GlcNAc(b1-2)[Fuc(a1-2)Gal(b1-4)GlcNAc(b1-4)]Man(a1-3)[Fuc(a1-2)Gal(b1-4)GlcNAc(b1-2)Man(a1-6)]Man(b1-4)GlcNAc(b1-4)GlcNAc
# Method in brief: as §1
# [23] = biological target: Fuc(a1-2)Gal(b1-4)GlcNAc(b1-3)Gal(b1-4)GlcNAc
# Method in brief: as §1
# [24] = biological target: Fuc(a1-2)Gal(b1-4)GlcNAc(b1-3)Gal(b1-4)GlcNAc(b1-2)Man(a1-3)[Fuc(a1-2)Gal(b1-4)GlcNAc(b1-3)Gal(b1-4)GlcNAc(b1-2)Man(a1-6)]Man(b1-4)GlcNAc(b1-4)GlcNAc
# Method in brief: as §1
binder,measurement,setting,value
B1,glycan array binding signal (z-score),Fuc(a1-2)Gal,-0.28
same,glycan array binding signal (z-score),Fuc(a1-2)Gal(b1-3)GalNAc,-0.032
same,glycan array binding signal (z-score),[1],-0.989
same,glycan array binding signal (z-score),[2],-1.01
same,glycan array binding signal (z-score),[3],0.648
same,glycan array binding signal (z-score),[4],-0.11
same,glycan array binding signal (z-score),[5],-0.036
same,glycan array binding signal (z-score),Fuc(a1-2)Gal(b1-3)GlcNAc,-0.227
same,glycan array binding signal (z-score),[6],4.25
same,glycan array binding signal (z-score),[7],-0.345
same,glycan array binding signal (z-score),[8],-0.939
same,glycan array binding signal (z-score),[9],-0.347
same,glycan array binding signal (z-score),[10],-0.424
same,glycan array binding signal (z-score),[11],0.342
same,glycan array binding signal (z-score),[12],-0.639
same,glycan array binding signal (z-score),[13],-0.73
same,glycan array binding signal (z-score),[14],-0.74
same,glycan array binding signal (z-score),[15],0.119
same,glycan array binding signal (z-score),[16],0.263
same,glycan array binding signal (z-score),[17],1.04
same,glycan array binding signal (z-score),[18],-0.806
same,glycan array binding signal (z-score),Fuc(a1-2)Gal(b1-4)Glc,0.585
same,glycan array binding signal (z-score),Fuc(a1-2)Gal(b1-4)Glc6S,-0.436
same,glycan array binding signal (z-score),Fuc(a1-2)Gal(b1-4)GlcNAc,-1.46
same,glycan array binding signal (z-score),[19],-1.01
same,glycan array binding signal (z-score),[20],0.94
same,glycan array binding signal (z-score),[21],0.253
same,glycan array binding signal (z-score),[22],-0.412
same,glycan array binding signal (z-score),[23],-1.09
same,glycan array binding signal (z-score),[24],0.359

# 2 entries drawn at random from the list so far, as already listed:
binder,measurement,setting,value
B1,glycan array binding signal (z-score),[17],1.04
same,glycan array binding signal (z-score),[2],-1.01
